These are yes or no findings as the source states them, for the method shown.
Target: His-SUMO-MLLE (PABPC1 MLLE domain 544-626 fused with a His-tagged SUMO tag) (UniProt P11940)
Assay: pull-down; His-SUMO-MLLE (200 ug) as bait mixed with 250 ug untagged LARP4A protein on ice, Ni-NTA agarose, washes in 50 mM Tris pH 7.25, 100 mM KCl, 0.2 mM EDTA, 1 mM DTT, 10 mM imidazole, elution with 500 mM imidazole, Coomassie SDS-PAGE; both purified

The chains behind the UniProt entries cited, without tags or fusion partners. Where a name states a change or a piece, a line headed by the entry shows the natural chain unless it says otherwise. A line that says so, or that is headed by a name, gives the form on record, which may keep a tag or linker. Residues count along the entry.
UniProt P11940, residues 544-626: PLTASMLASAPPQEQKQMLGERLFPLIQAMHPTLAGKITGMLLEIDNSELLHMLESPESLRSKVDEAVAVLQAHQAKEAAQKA
LARP4A NTD L15AW22A (Q71RC2, form named): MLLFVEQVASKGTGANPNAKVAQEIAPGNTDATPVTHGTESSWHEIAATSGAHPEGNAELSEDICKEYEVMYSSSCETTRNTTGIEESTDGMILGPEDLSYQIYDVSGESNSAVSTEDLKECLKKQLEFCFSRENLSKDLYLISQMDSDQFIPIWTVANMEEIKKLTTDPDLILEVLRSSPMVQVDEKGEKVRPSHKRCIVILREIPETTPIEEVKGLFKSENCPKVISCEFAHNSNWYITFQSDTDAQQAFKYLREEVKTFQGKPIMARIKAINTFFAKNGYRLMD

## LARP4A NTD L15AW22A (from UniProt Q71RC2 1-287) (domain or fragment)
  binding: no binding
